## Results of single-concentration screens

Amino acid sequences for entries named in this document (tags omitted).
UniProt P9WFT3, whole entry: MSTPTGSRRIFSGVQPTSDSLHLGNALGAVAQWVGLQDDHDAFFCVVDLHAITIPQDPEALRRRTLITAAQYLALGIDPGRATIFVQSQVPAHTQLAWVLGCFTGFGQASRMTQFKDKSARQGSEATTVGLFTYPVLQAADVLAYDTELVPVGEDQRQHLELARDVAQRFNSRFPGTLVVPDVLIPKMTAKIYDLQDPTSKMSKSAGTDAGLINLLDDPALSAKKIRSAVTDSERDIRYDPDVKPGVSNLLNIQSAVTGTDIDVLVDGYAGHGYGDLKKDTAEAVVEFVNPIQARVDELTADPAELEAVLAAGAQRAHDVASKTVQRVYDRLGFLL

From ChEMBL document CHEMBL3988442, “University of Dundee, Small-Polar-MMV Screening Library” (2021).

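Enzyme assay of tryptophanyl-tRNA synthetase; the read-out is not stated. Target: Tryptophan-tRNA ligase, Mycobacterium tuberculosis (UniProt P9WFT3). Concentration: 10 µM. Higher most likely means stronger inhibition; the record gives no direction and few retests gave an IC50. Size under these conditions: about 65,000 compounds, about 64 of them at 50% or above in at least one test.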

Results are given as percent effect.
The controls that fix the scale are not given in the record; negative values are as filed.
This is an unselected part of the compounds tested.

For CCc1nsc(N2CCC3(CC2)OCCO3)n1 the result was 1.175%. With O=C(C1CCC2(CCN(c3nncs3)CC2)C1)N1CCCC1 (stereo not drawn) the screen gave 14.61%. CN(C)C(=O)CCC[S+]([O-])Cc1ccc(F)c(F)c1 (stereo not drawn) read 31.49%. For O=C(C1CCCCC1)N1C[C@@H]2CCN(c3cnccn3)C[C@@H]2C1 the result was -0.995%. For CNC(=O)c1nc(COc2c(C)occc2=O)no1 the result was 1.581%.

For CC(C)CN1C[C@@H]2CN(c3cnccn3)C[C@@H]2C1=O the result was 7.441%. Cc1ccccc1S(=O)(=O)N(C)[C@@H]1CC[C@@H](n2ccnc2C)[C@@H]1O gave 26.04%. Result for COc1ccc(CNC(Cc2ccsc2)c2ncccc2C)cc1OC (stereo not drawn) was -8.569%. Result for Cc1cc(C(=O)N2C[C@@H]3COC[C@]3(CN(C)C)C2)c(C)o1 was 12.31%. Result for Cn1cc(-c2cc(C(=O)N3CCOCC3)c3ccc(F)cc3n2)cn1 was -2.637%.

Cc1nccc(-c2cccc(NCC(=O)N3CCNC(=O)C3)c2)n1 gave -3.123%. With O=C(c1ccc(S(=O)(=O)NCCc2ccccn2)cc1)N1CCCC1 the screen gave 6.802%. Cc1ccc(N2CCCC(NCCCS(C)(=O)=O)C2)nn1 (stereo not drawn) gave 4.095%. Cc1nccn1-c1ccc(CNS(=O)(=O)N2CCCCC2C)cn1 (stereo not drawn) gave 2.511%. With O=C(Nc1ccncc1)NC1CCN(c2ccccc2OC(F)F)C1 (stereo not drawn) the screen gave -2.385%.

COc1ccc(C(CNS(=O)(=O)c2cn(C)nc2C)N2CCCC2)cc1 (stereo not drawn) gave 0.7812%. Result for CCc1c(C(=O)O)nnn1-c1ccc(C)cc1C was -2.251%. With CNC(=O)c1c[nH]nc1C1CCCN1c1ncccn1 (stereo not drawn) the screen gave -6.368%. COc1ccccc1OCCNCc1c(C)nn(C)c1N(C)C read -7.592%. c1ccc(CCN2CCOC(Cn3cccn3)C2)nc1 (stereo not drawn) gave 1.642%.

Result for Cn1c(CC(=O)O)c(Sc2ccccc2)c2ccccc21 was 1.386%. Result for COCCN1CCO[C@@H]2CN(Cc3ccc(C)s3)C[C@@H]2C1 was -3.344%. O=S(=O)(NCCNc1cc(-n2cccc2)ncn1)c1cccs1 read -3.116%. CC(C(=O)Nc1ccc(N2CCCCC2)nc1)n1cncn1 (stereo not drawn) gave 12.11%. For Cn1ccc2c(C(=O)NC3CN4CCC3CC4)cccc21 (stereo not drawn) the result was 0.4902%.

For CCN(CC1CCCO1)C(=O)Nc1cc(C(=O)OC)ccc1F (stereo not drawn) the result was -0.7081%. Result for Cc1ccsc1-c1cc(C(=O)O)cc(S(=O)(=O)NCc2ccccn2)c1 was 2.952%. For CS(=O)(=O)CCSCc1cc(F)cc2cccnc12 the result was -4.487%. Cc1cnc(CN2CCCCC2c2nc(-c3ccccc3)no2)cn1 (stereo not drawn) gave -7.424%. Result for O=c1cc(N2CCc3ccccc3C2)cnn1CCC1CCOC1 (stereo not drawn) was 2.971%.

With CCOc1ccc(CN2C(=O)CC(C)(C(C)C)C2=O)nc1 (stereo not drawn) the screen gave -3.067%. With CN(CC(O)C(F)(F)F)C(=O)Nc1cccc(N2CCCC2)c1 (stereo not drawn) the screen gave 0.1022%. CSC1(CNC(=O)N(C)Cc2ccc(Cl)s2)CCOCC1 read 11.21%. Result for CCC(CO)N(Cc1ccco1)C(=O)c1ccccc1SC (stereo not drawn) was 7.143%. For CN(C)Cc1nn(C)c2c1CN(C(=O)Nc1cccc(F)c1)C2 the result was 1.199%.

With Cc1ccc(C)c(OCCNC(=O)C2CCOC2)c1 (stereo not drawn) the screen gave -2.7%. Cc1nn(C)cc1C(=O)N1C[C@H]2CC[C@@H]1CN(S(=O)(=O)N(C)C)C2 gave -3.375%. Result for COc1ccccc1CC(=O)N1CCC(OCc2cccnc2)CC1 was 3.09%. Result for CCC(=O)N1CCN(C(=O)Nc2cccc(N3CCOCC3)c2)CC1 was -3.837%. With Cc1cc(=O)n(C)cc1NC(=O)Cc1cccc(Cl)c1 the screen gave 9.389%.

For CN(CCCc1ccccc1)C(=O)CCc1nc(-c2nnc[nH]2)no1 the result was -3.015%. COc1ccc(C)cc1C1(CNc2cncc(Cl)n2)CCOCC1 read -6.972%. Cc1ccccc1-n1cnnc1SCCOCC1CCCO1 (stereo not drawn) gave 0.7498%. With Cc1cc(C)n(CC2CCCN2CCCc2nc3ccccc3o2)n1 (stereo not drawn) the screen gave -4.583%. c1cc(CN2CCCCC2c2ccc(Nc3cnccn3)nc2)ccn1 (stereo not drawn) read -3.562%.

CCCn1cnnc1CN(C)C(=O)C1CCCN(C2CCN(C)CC2)C1 (stereo not drawn) read 5.727%. With CCCN1CCCCCC1Cc1c(C(=O)NC)sc2ccccc12 (stereo not drawn) the screen gave 4.976%. Result for CCN1CC2(CCN(C(=O)C(C)Oc3cccc(Cl)c3)CC2)OC1=O (stereo not drawn) was -1.019%. O=C(c1cccnc1)N1CCc2c(COCC3CC3)cncc2C1 gave -7.325%. For Cc1cccc(C(=O)Nc2ccc(OC3CCOCC3)c(C)c2)n1 the result was 9.208%.

For CN(C)Cc1cnc(C2CCN(C(=O)c3ccc(F)cc3)C2)[nH]1 (stereo not drawn) the result was -3.034%. CN1CCS(=O)(=O)[C@@H]2CCN(C(=O)c3ccccc3)CC[C@@H]21 read 0.08496%. CN1CCN(c2ccc(NC(=O)c3ccccn3)c(C(F)(F)F)c2)CC1 gave 2.129%.